Reference: the supplement of paper PMC7877785
± gives the uncertainty stated by the source. The uncertainty is large for many entries.

Assay: self-splicing fitness, log relative to wild type (ln ratio); higher = more splicing; Tetrahymena group I intron in knt gene, E. coli kanamycin selection, DiMSum; sequences stand for … in CUCUCU…GGAGGGAAAAGUUAUCAGGCAUGCACCUGGUAGCUAGUCUUUAAACCAAUAGAUUGCAUCGGUUUAAAAGGCAAGACCGUCAAAUUGCGGGAAAGGGGUCAACAGCCGUUCAGUACCAAGUCUCAGGGGAAACUUUGAGAUGGCCUUGCAAAGGGUAUGGUAAUAAGCUGACGGACAUGGUCCUAACCACGCAGCCAAGUCCUAAGUCAACAGAUCUUCUGUUGAUAUGGAUGCAGUUCACAGACUAAAUGUCGGUCGGGGAAGAUGUAUUCUUCUCAUAAGAUAUAGUCGGACCUCUCCUUAAUGGGAGCUAGCGGAUGAAGUGAUGCAACACUGGAGCCGCUGGGAACUAAUUUGUAUGCGAAAGUAUAUUGAUUAGUUUUGGAGUACUCGUGGUCG
Summary of the method: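 DiMSum derived fitness as the error-weighted combination of fold changes across replicates, kanamycin versus no kanamycin, normalised to wild type. E. coli BL21(DE3) held the library, which randomised all eight P1ex-region intron nucleotides within the knt kanamycin-resistance gene on pET-22b(+). Six replicate transformations grew overnight at 37°C or 30°C on LB agar with or without 25 μg/mL kanamycin, also containing 100 μg/mL carbenicillin, 50 μM IPTG and 0.2% rhamnose, and pooled colonies were amplicon-sequenced on an Illumina HiSeq 2500.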

Sequence	self-splicing fitness (ln) (37 °C)	self-splicing fitness (ln) (30 °C)
CAGGAGCAAUAUUACGGCAU	-2.23 ± 0.8	–
UUAUAGCAAUAUUACGAGCU	–	-3.61 ± 0.54
GCAGAGCAAUAUUACGCUGG	-1.12 ± 0.51	-2.58 ± 0.64
AGUGAGCAAUAUUACGUGAC	-2.39 ± 0.32	-2.02 ± 0.35
GCGCAGCAAUAUUACGGCGG	-1.28 ± 0.15	-2.48 ± 0.13
AAGUAGCAAUAUUACGUUGC	-3.19 ± 0.21	-3.66 ± 0.14
CCGGAGCAAUAUUACGGAUU	–	-4.33 ± 0.51
GACUAGCAAUAUUACGGAGG	–	-4.39 ± 0.51
UAGCAGCAAUAUUACGAUGC	–	-3.13 ± 1
GGUCAGCAAUAUUACGCGGC	-0.759 ± 0.64	-3.64 ± 0.54
GCGUAGCAAUAUUACGAGGC	-1.53 ± 0.39	-3.03 ± 0.53
UACCAGCAAUAUUACGAAGG	-0.865 ± 0.12	-2.22 ± 0.11
CGUGAGCAAUAUUACGACGC	-1.39 ± 1.2	-2.53 ± 0.84
UUUCAGCAAUAUUACGGCGA	0.167 ± 0.13	-0.344 ± 0.093
GUUAAGCAAUAUUACGUUUG	-1.86 ± 0.17	-2.55 ± 0.12
GAUUAGCAAUAUUACGUCCC	-0.221 ± 0.17	-0.907 ± 0.17
CGGGAGCAAUAUUACGAUAU	-3.19 ± 0.6	–
UGCGAGCAAUAUUACGGGCU	-2.72 ± 0.62	–
AGAGAGCAAUAUUACGCACG	-2.03 ± 0.81	–
CGCUAGCAAUAUUACGCUCC	-2.54 ± 1.1	–
GUCGAGCAAUAUUACGCCGC	-2.41 ± 0.55	-3.06 ± 0.63
UCAUAGCAAUAUUACGCUUA	–	-1.98 ± 0.55

Record cards, from the list above:
GGUCAGCAAUAUUACGCGGC reads self-splicing fitness (ln) (37 °C) = -0.759 ± 0.64; self-splicing fitness (ln) (30 °C) = -3.64 ± 0.54
GACUAGCAAUAUUACGGAGG reads self-splicing fitness (ln) (30 °C) = -4.39 ± 0.51

Carrying on:

Sequence	self-splicing fitness (ln) (37 °C)	self-splicing fitness (ln) (30 °C)
UCAGAGCAAUAUUACGCAUC	-3.33 ± 1	-3.61 ± 0.73
UAGGAGCAAUAUUACGGACC	-1.99 ± 0.65	-3.19 ± 0.61
CUCAAGCAAUAUUACGCCUU	–	-4.27 ± 0.51
CGUGAGCAAUAUUACGCAGA	–	-1.55 ± 0.84
UGGUAGCAAUAUUACGAGAA	–	-1.65 ± 0.57
CCCGAGCAAUAUUACGGCCU	-2.86 ± 0.61	–
GAUCAGCAAUAUUACGCUCC	-1.83 ± 0.82	-4.04 ± 1.1
CAGGAGCAAUAUUACGGCAC	-2.63 ± 1.1	-3.26 ± 0.77
UUGUAGCAAUAUUACGGUUC	-2.22 ± 0.5	-3.92 ± 0.53
AUAAAGCAAUAUUACGAGAG	-1.03 ± 0.15	-2.29 ± 0.18
GUGUAGCAAUAUUACGCACC	–	-1.88 ± 0.8
GCGUAGCAAUAUUACGCAGA	-1.79 ± 0.82	-3.46 ± 1.1
GCAGAGCAAUAUUACGGGGC	-3.04 ± 0.74	–
CUUGAGCAAUAUUACGUAAC	-1.62 ± 1.1	–
CAGGAGCAAUAUUACGUGAC	-2.06 ± 0.65	–
GUUAAGCAAUAUUACGAGAA	-1.98 ± 0.85	-1.55 ± 0.71
UUUAAGCAAUAUUACGGGUU	-1.67 ± 0.22	-2.83 ± 0.3
CUUCAGCAAUAUUACGUAUA	-1.98 ± 0.2	-3.15 ± 0.27
GCCAAGCAAUAUUACGCCUA	-0.61 ± 0.18	-0.609 ± 0.16
GUAGAGCAAUAUUACGUGGA	–	-3.89 ± 0.53
UUUCAGCAAUAUUACGCAGC	-2.29 ± 0.78	-3.04 ± 0.58
CUGUAGCAAUAUUACGGCCC	–	-3.89 ± 0.52
